Experimental data reported in US12427179B2, “Compositions and methods for diagnosis and treatment of neurodegenerative diseases” (EPITRACKER, INC., priority 2019, dated 2025).

Legend:
[1] = Serum biochemical quantities, wild dolphins compared to Navy dolphins; type: in vivo, bottlenose dolphins (Tursiops truncatus); settings: wild (Sarasota Bay) over Navy dolphins
Neuronal iron density = experiment: Serum biochemical age-group ratio in dolphins with high vs low neuronal iron density; type: in vivo, bottlenose dolphins (Tursiops truncatus); settings: *3-15 years old:0-2 years old; for Serum biochemical quantity ratio, High density: high neuronal iron density dolphins; for Serum biochemical quantity ratio, Low density: low neuronal iron density dolphins

C[N+](C)(C)CC(=O)O [betaine]
Serum biochemical quantity ratio, Ratio (wild dolphins compared to Navy dolphins) [1]: 1.52
Serum biochemical quantity ratio, High density (Neuronal iron density): 0.84
Serum biochemical quantity ratio, Low density (Neuronal iron density): 1.04

CCC(C)C(=O)C(=O)O (stereo not drawn) [3-methyl-2-oxovalerate]
Serum biochemical quantity ratio, Ratio (wild dolphins compared to Navy dolphins) [1]: 1.26
Serum biochemical quantity ratio, High density (Neuronal iron density): 0.68
Serum biochemical quantity ratio, Low density (Neuronal iron density): 1.42

OC[C@@H](O)[C@@H](O)[C@@H](O)CO [ribitol]
Serum biochemical quantity ratio, Ratio (wild dolphins compared to Navy dolphins) [1]: 1.56
Serum biochemical quantity ratio, High density (Neuronal iron density): 0.74
Serum biochemical quantity ratio, Low density (Neuronal iron density): 1.71

arabitol/xylitol
Serum biochemical quantity ratio, Ratio (wild dolphins compared to Navy dolphins) [1]: 1.34
Serum biochemical quantity ratio, High density (Neuronal iron density): 0.67
Serum biochemical quantity ratio, Low density (Neuronal iron density): 1.39

O=C(O)c1c[nH]c2ccccc12 [indole-3-carboxylate]
Serum biochemical quantity ratio, Ratio (wild dolphins compared to Navy dolphins) [1]: 1.17
Serum biochemical quantity ratio, High density (Neuronal iron density): 0.86
Serum biochemical quantity ratio, Low density (Neuronal iron density): 1.53

CC(=O)NCCCCN [N-acetylputrescine]
Serum biochemical quantity ratio, Ratio (wild dolphins compared to Navy dolphins) [1]: 1.57
Serum biochemical quantity ratio, High density (Neuronal iron density): 0.76
Serum biochemical quantity ratio, Low density (Neuronal iron density): 1.07

CC(=O)NCCS(=O)(=O)O [N-acetyltaurine]
Serum biochemical quantity ratio, Ratio (wild dolphins compared to Navy dolphins) [1]: 1.05
Serum biochemical quantity ratio, High density (Neuronal iron density): 0.72
Serum biochemical quantity ratio, Low density (Neuronal iron density): 1.25
